Results on 46 compounds are retold here after ChEMBL document CHEMBL4303122, “Identification of potential treatments for COVID-19 through artificial intelligence-enabled phenomic analysis of human cells infected with SARS-CoV-2” (2020).

Over roughly 1,600 compounds, “Hit score” has its median near 0.13; the highest 2% begin near 0.46. The list shows a part of the results.

The test deals with SARS-CoV-2. Briefly: Antiviral activity against SARS-CoV-2 (USA-WA1/2020 strain) measured by imaging in HRCE cells at MOI 0.4 after 96 hrs (reported as hit score from 0-1 for on-disease vs off-disease activity: scores >0.6 considered hits). It counts as functional, Homo sapiens.
For the compound `CCCCOc1cc(C(=O)NCCN(CC)CC)c2ccccc2n1` [DIBUCAINE], the Hit score is on record as 0.1716. As for `CCS(=O)(=O)CCn1c([N+](=O)[O-])cnc1C` [TINIDAZOLE], the figure is 0.04306; as for `O=C1CCc2cc(OCCCCc3nnnn3C3CCCCC3)ccc2N1` [CILOSTAZOL], -0.005558.

In the case of `CNC(C)Cc1ccccc1OC` (stereo unspecified) [METHOXYPHENAMINE], the Hit score is listed as 0.08963.

`C=C[C@]1(C)C[C@@H](OC(=O)CS[C@@H]2C[C@H]3CC[C@@H](C2)N3C)[C@]2(C)[C@H](C)CC[C@]3(CCC(=O)[C@H]32)[C@@H](C)[C@@H]1O` [RETAPAMULIN] registered a Hit score of 0.07786.

`C[C@@H](CN1CC(=O)NC(=O)C1)N1CC(=O)NC(=O)C1` [DEXRAZOXANE]: the Hit score is reported as 0.2317. As for `CC(=O)Nc1ccc(CC(=O)O)cc1` [ACTARIT], the figure is 0.2693; as for `CNCCC(Oc1ccc(C(F)(F)F)cc1)c1ccccc1` (stereo unspecified) [FLUOXETINE], 0.07098; as for `Cc1nc2n(c(=O)c1CCN1CCC(c3noc4cc(F)ccc34)CC1)CCCC2` [RISPERIDONE], 0.02869. As for `N=C(N)NCCC[C@H](N)C(=O)O` [ARGININE], the figure is 0.2007. Under `OCc1cc(C(O)CNCCCCCCOCCCCc2ccccc2)ccc1O` (stereo unspecified) [SALMETEROL] stands -0.09671. For `CC(C)(C)NC[C@H](O)c1ccc(O)c(CO)c1` [LEVOSALBUTAMOL], the Hit score is -0.2317. Compound `CC(=O)Nc1c(I)c(C(=O)O)c(I)c(N(C)C(C)=O)c1I` [METRIZOIC ACID] returned a Hit score of 0.02785. Under `CCOc1ccccc1OCCN[C@H](C)Cc1ccc(OC)c(S(N)(=O)=O)c1` [TAMSULOSIN] stands 0.1193. As for `CCCS(=O)(=O)Nc1ccc(F)c(C(=O)c2c[nH]c3ncc(-c4ccc(Cl)cc4)cc23)c1F` [VEMURAFENIB], the figure is 0.2964; as for `O=C(Nc1c(Cl)cncc1Cl)c1ccc(OC(F)F)c(OCC2CC2)c1` [ROFLUMILAST], 0.1334. As for `O=C(O)c1cc(-c2ccc(F)cc2F)ccc1O` [DIFLUNISAL], the figure is 0.07855. The compound `C=C1C(=O)O[C@@H]2[C@H]3C(C)=CC[C@@]34O[C@@]4(C)CC[C@@H]12` [ARGLABIN] showed a Hit score of 0.02107.

Compound `CO/N=C1\C[C@]2(C[C@@H]3C[C@@H](C/C=C(\C)C[C@@H](C)/C=C/C=C4\CO[C@@H]5[C@H](O)C(C)=C[C@@H](C(=O)O3)[C@]45O)O2)O[C@H](/C(C)=C/C(C)C)[C@H]1C` [MOXIDECTIN] returned a Hit score of 0.3085. Under `CC(C)C(=O)Nc1ccc([N+](=O)[O-])c(C(F)(F)F)c1` [FLUTAMIDE] stands 0.2322. As for `Cn1cnc([N+](=O)[O-])c1Sc1ncnc2[nH]cnc12` [AZATHIOPRINE], the figure is 0.1841; as for `CC(=O)Oc1cc2c(s1)CCN(C(C(=O)C1CC1)c1ccccc1F)C2` (stereo unspecified), 0.2148. As for `OCCN1C[C@H](O)[C@@H](O)[C@H](O)[C@H]1CO` [MIGLITOL], the figure is 0.2289; as for `COC(=O)C1=C(C)NC(C)=C(C(=O)OC(C)C)C1c1cccc2nonc12` (stereo unspecified) [ISRADIPINE], 0.06277. `C[C@@H]1CCO[C@H]2Cn3cc(C(=O)NCc4ccc(F)cc4F)c(=O)c(O)c3C(=O)N12` [DOLUTEGRAVIR] had a Hit score of -0.02185. Under `CC(=O)SCC(Cc1ccccc1)C(=O)NCC(=O)OCc1ccccc1` (stereo unspecified) [RACECADOTRIL] stands 0.133; under `N[C@@H](CSCCCO)C(=O)O` [FUDOSTEINE], 0.1737. Under `CC(C)(C)NC(=O)[C@@H]1CN(Cc2cccnc2)CCN1C[C@@H](O)C[C@@H](Cc1ccccc1)C(=O)N[C@H]1c2ccccc2C[C@H]1O.O` stands 0.1733; under `COc1ccc(C(CN(C)C)C2(O)CCCCC2)cc1` (stereo unspecified) [VENLAFAXINE], 0.1052; under `CC1COc2c(N3CCN(C)CC3)c(F)cc3c(=O)c(C(=O)O)cn1c23` (stereo unspecified) [OFLOXACIN], 0.08432. As for `C[C@H]1O[C@@H](O[C@H]2[C@@H](O)C[C@H](O[C@H]3[C@@H](O)C[C@H](O[C@H]4CC[C@@]5(C)[C@H](CC[C@@H]6[C@@H]5C[C@@H](O)[C@]5(C)[C@@H](C7=CC(=O)OC7)CC[C@]65O)C4)O[C@@H]3C)O[C@@H]2C)C[C@H](O)[C@@H]1O` [DIGOXIN], the figure is 0.06169; as for `CN1CCN(c2cc3c(cc2F)c(=O)c(C(=O)O)cn3-c2ccc(F)cc2)CC1` [DIFLOXACIN], 0.0587.

In the case of `CCCC(=O)OCOC(=O)C1=C(C)NC(C)=C(C(=O)OC)C1c1cccc(Cl)c1Cl` (stereo unspecified) [CLEVIDIPINE], the Hit score is given as 0.1396. As for `NC(CO)C(=O)NNCc1ccc(O)c(O)c1O` (stereo unspecified) [BENSERAZIDE], the figure is 0.1106; as for `CN(C)CCCN1c2ccccc2CCc2ccccc21` [IMIPRAMINE], 0.1243; as for `Nc1nc(O)c2ncn(CCC(CO)CO)c2n1` [PENCICLOVIR], 0.1329. Under `Fc1ccc([C@@H]2CCNC[C@H]2COc2ccc3c(c2)OCO3)cc1` [PAROXETINE] stands 0.0967; under `CN(C/C=C/C#CC(C)(C)C)Cc1cccc2ccccc12` [TERBINAFINE], 0.2015; under `O=c1[nH]cnc2c1ncn2[C@H]1CC[C@@H](CO)O1` [DIDANOSINE], 0.1328. As for `CN(C)C(=O)Oc1cccc([N+](C)(C)C)c1` [NEOSTIGMINE], the figure is 0.1096; as for `CCOC(=O)[C@H](CCc1ccccc1)N[C@@H](C)C(=O)N1Cc2cc(OC)c(OC)cc2C[C@H]1C(=O)O` [MOEXIPRIL], 0.07718. On to `CN1CCC(OC(c2ccccc2)c2ccccc2)CC1`, for which the Hit score turned out to be 0.2582.

Regarding `COc1cc(/C=C/C(=O)CC(=O)/C=C/c2ccc(O)c(OC)c2)ccc1O` [CURCUMIN], the Hit score was determined as 0.2205. Under `O=C1NCCN1CCN1CCC(c2cn(-c3ccc(F)cc3)c3ccc(Cl)cc23)CC1` [SERTINDOLE] stands 0.05774; under `O=C1CCC(N2C(=O)c3ccccc3C2=O)C(=O)N1` (stereo unspecified) [THALIDOMIDE], 0.1381; under `CCCCc1nc(Cl)c(CO)n1Cc1ccc(-c2ccccc2-c2nnn[nH]2)cc1` [LOSARTAN], 0.0016.
